Reference: PubChem BioAssay AID2685 (National Center for Advancing Translational Sciences (NCATS), 2010)
The list shows a part of the results. Shown are side measurements of this screen, not its main read-out; they come without a call. Most of these compounds were active or inconclusive in the main read-out, so they are no random draw. The note in brackets gives the kind of curve behind each potency; many fits are weak.

Test: qHTS Assay for Lipid Storage Modulators in Drosophila S3 Cells;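 as to cell number change: cells counted by Cell Tracker Red CMTPX staining in the red channel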
Conditions: BODIPY lipid droplet fluorescence, 18-24 h; for cell number change: measured here: cell count max response, cells fed with added oleic acid
In short: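 Laser-scanning cytometry quantifies lipid droplet accumulation (500–530 nm total intensity; droplet/cell object ratio) in oleic acid-fed (400 uM added) Drosophila S3 cells treated with a concentration series. 20 uM Triacsin C defined 100% inhibition.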

[1] = measured here: lipid fluorescence (Fed channel) AC50, cells fed with added oleic acid
[2] = measured here: cell number channel AC50, cells fed with added oleic acid

Row | SMILES | cell number change [%] | AC50 [1] | AC50 [2]
1 | Cc1ccc2nc(CCc3ccc(N)cc3)[nH]c2c1 | -13.5 |  | 
2 | O=C(COC(=O)c1ccc(CO)cc1)Nc1ccc(OC(F)F)cc1 | 19.4 | 6.51 µM [falling, single point] | 
3 | COc1ccc(/C=C2\C(=O)N(Cc3ccc(F)cc3)CC(=O)N2Cc2ccccc2)cc1 |  | 3.66 µM [rising, single point] | 
4 | COc1cc(NC(=O)C2CCCN(S(=O)(=O)c3ccc4[nH]c(=O)ccc4c3)C2)cc(OC)c1 (stereo not drawn) | 47.6 |  | 25.9 µM [rising, single point]
5 | Cc1cc(CNC(=O)C2CCC(=O)N(Cc3cccc(C(F)(F)F)c3)C2)no1 (stereo not drawn) | 35.8 | 32.6 µM [rising, single point] | 4.11 µM [rising, full curve, poor fit]
6 | CCOC(=O)C1=C(C)NC2=C(C(=O)C(C(=O)OCC)C(c3ccccc3OC)C2)C1c1ccccn1 (stereo not drawn) | -19.7 |  | 
7 | Cc1ccc(NC(=O)c2cc(C)n(-c3cccc(C)c3)c2C)cc1 | 23.9 | 18.4 µM [rising, single point] | 0.13 µM [rising, full curve, poor fit]
8 | CCOc1ccc(C(=O)NCC(=O)NC(C)CCc2ccccc2)cc1OCC (stereo not drawn) | 5.95 | 29.1 µM [rising, single point] | 
9 | C=CCn1c(SCc2c(C)noc2C)nc2cc(C(=O)O)ccc2c1=O | -15.4 | 0.411 µM [rising, full curve, poor fit] | 
10 | O=[N+]([O-])c1ccc(N2CCN(S(=O)(=O)c3ccccc3)CC2)cc1N1CCc2ccccc2C1 | 19.5 | 0.206 µM [rising, full curve, poor fit] | 
11 | COc1ccc(NC(=S)NC23CC4CC(CC(C4)C2)C3)cc1OC | 0.587 |  | 
12 | COCCN(C(=O)c1ccc(N2CCCC2=O)cc1)c1c(N)n(CC(C)C)c(=O)[nH]c1=O | -61.1 |  | 5.17 µM [falling, full curve]
13 | CCc1ccc(CN2CCCC(C(=O)Nc3ccc(-c4cscn4)cc3)C2)o1 (stereo not drawn) |  | 0.116 µM [rising, full curve, poor fit] | 
14 | COc1ccc(-c2c(-c3cc(OC)cc(OC)c3)n(C)c3ccc(-c4ccc(S(N)(=O)=O)cc4)cc23)cc1 | 2.52 |  | 1.16 µM [falling, single point]
15 | Nc1nnc(N)c2ccccc12 | -13.7 | 6.51 µM [rising, single point] | 
16 | CCn1nnc2cc(C(=O)Nc3cc(Cl)ccc3C)ccc21 | -0.519 | 11.6 µM [rising, partial curve, poor fit] | 
17 | Cc1nn(CC(=O)N2CCC(C(N)=O)CC2)c(=O)c2nn(-c3ccccc3)c(C)c12 | -14.9 |  | 
18 | COCc1nnc(NC(=O)c2ccccc2[N+](=O)[O-])s1 | 71.5 |  | 7.31 µM [rising, partial curve]
19 | CC(=O)/C(N=Nc1nc2c([nH]1)c(=O)n(C)c(=O)n2C)=C(\C)O | -32.3 |  | 
20 | Cc1cccc(N2CCN(C(=O)C3CCN(S(=O)(=O)N4CCOCC4)CC3)CC2C)c1 (stereo not drawn) | 2.77 | 0.103 µM [rising, full curve, poor fit] | 

Row | SMILES | cell number change [%] | AC50 [1] | AC50 [2]
21 | Cc1nn(-c2ccccc2)nc1CNC(=O)C(C)Cc1ccccc1 (stereo not drawn) | 17.5 | 7.31 µM [rising, partial curve] | 
22 | CCn1c(SCC(=O)c2[nH]c(C)c(C(C)=O)c2C)nnc1-c1ccccc1 | -11.8 |  | 
23 | Cc1nc(CCNC(=O)CC2C(=O)NCCN2Cc2ccccc2)nc2c1CCC2 (stereo not drawn) | 10.5 |  | 
24 | Cc1ccc(S(=O)(=O)NCC(=O)NCC(=O)OC(C(=O)NC(N)=O)C(C)C)cc1C (stereo not drawn) | 2.77 |  | 
25 | CCOc1ccc(C(=O)COC(=O)c2ccc(-n3cnnn3)cc2)cc1 | 9.68 | 25.9 µM [rising, single point] | 
26 | C#CC(CC)(CC)NC(=S)Nc1cccc(C(C)=O)c1 | -26.6 | 29.1 µM [falling, single point] | 
27 | COc1ccc(CCNC(=O)COC(=O)COc2ccc(Cl)cc2)cc1OC | 59.3 | 6.51 µM [falling, single point] | 
28 | COc1ccc(N2C(=O)CC(NNC(=O)c3cc(C)oc3C)C2=O)cc1 (stereo not drawn) |  | 0.058 µM [falling, single point] | 5.8 µM [rising, single point]
29 | CCCCn1c(-c2csc(CCC)c2)n[nH]c1=S | -31.3 | 2.59 µM [falling, partial curve, poor fit] | 16.4 µM [falling, partial curve]
30 | Cc1nnc(NC(=O)c2ccc(-c3ccc([N+](=O)[O-])cc3)o2)s1 | 21.6 | 6.51 µM [rising, single point] | 
31 | CCOc1ccc(NC(=O)COc2ccc(C(=O)NC(C)c3ccc(S(N)(=O)=O)cc3)cc2OC)cc1 (stereo not drawn) | 15.1 | 5.17 µM [rising, single point] | 
32 | CCOC(=O)C(NC(=O)c1ccc(OC)cc1)(OCC1(CC)COC1)C(F)(F)F (stereo not drawn) | 0.0015 |  | 
33 | CC(C)CNC(=O)c1nn(Cc2ccccc2)c(=O)c2ccccc12 | 32.9 | 0.00517 µM [falling, full curve, poor fit] | 29.1 µM [rising, single point]
34 | Oc1ccc(N=Cc2sc3ccccc3c2Cl)cc1 | -45.4 | 20.6 µM [falling, single point] | 23.1 µM [falling, single point]
35 | CCCc1nnc(NC(=O)c2nc(S(=O)(=O)Cc3cccc(C)c3)ncc2Cl)s1 |  | 3.66 µM [falling, partial curve, poor fit] | 6.51 µM [falling, single point]
36 | CCOc1ccc(NC(=O)CN2CCN(C(=O)c3ccco3)CC2)cc1S(=O)(=O)N1CCCC1 | 3.47 | 1.46 µM [falling, partial curve] | 
37 | NNC(=O)[C@@H]1C[C@@H]1c1ccccc1 | 8.8 | 1.84 µM [falling, partial curve, poor fit] | 
38 | COc1ccc(NC(=O)Nc2c[nH]c(=O)[nH]c2=O)cc1OC | -15.3 |  | 
39 | CCN(CC(=O)Nc1ccc(OC)cc1)C(=O)c1ccc2c(c1)NC(=O)CS2 | 7.5 |  | 
40 | Cn1c(=O)cc(C(=O)N/N=C/c2ccc(F)cc2)[nH]c1=O | 1.81 | 2.59 µM [rising, partial curve] | 1.3 µM [rising, partial curve, poor fit]

15 consecutive compounds from above, quoted:
Row | SMILES | cell number change [%] | AC50 [1] | AC50 [2]
25 | CCOc1ccc(C(=O)COC(=O)c2ccc(-n3cnnn3)cc2)cc1 | 9.68 | 25.9 µM [rising, single point] | 
26 | C#CC(CC)(CC)NC(=S)Nc1cccc(C(C)=O)c1 | -26.6 | 29.1 µM [falling, single point] | 
27 | COc1ccc(CCNC(=O)COC(=O)COc2ccc(Cl)cc2)cc1OC | 59.3 | 6.51 µM [falling, single point] | 
28 | COc1ccc(N2C(=O)CC(NNC(=O)c3cc(C)oc3C)C2=O)cc1 (stereo not drawn) |  | 0.058 µM [falling, single point] | 5.8 µM [rising, single point]
29 | CCCCn1c(-c2csc(CCC)c2)n[nH]c1=S | -31.3 | 2.59 µM [falling, partial curve, poor fit] | 16.4 µM [falling, partial curve]
30 | Cc1nnc(NC(=O)c2ccc(-c3ccc([N+](=O)[O-])cc3)o2)s1 | 21.6 | 6.51 µM [rising, single point] | 
31 | CCOc1ccc(NC(=O)COc2ccc(C(=O)NC(C)c3ccc(S(N)(=O)=O)cc3)cc2OC)cc1 (stereo not drawn) | 15.1 | 5.17 µM [rising, single point] | 
32 | CCOC(=O)C(NC(=O)c1ccc(OC)cc1)(OCC1(CC)COC1)C(F)(F)F (stereo not drawn) | 0.0015 |  | 
33 | CC(C)CNC(=O)c1nn(Cc2ccccc2)c(=O)c2ccccc12 | 32.9 | 0.00517 µM [falling, full curve, poor fit] | 29.1 µM [rising, single point]
34 | Oc1ccc(N=Cc2sc3ccccc3c2Cl)cc1 | -45.4 | 20.6 µM [falling, single point] | 23.1 µM [falling, single point]
35 | CCCc1nnc(NC(=O)c2nc(S(=O)(=O)Cc3cccc(C)c3)ncc2Cl)s1 |  | 3.66 µM [falling, partial curve, poor fit] | 6.51 µM [falling, single point]
36 | CCOc1ccc(NC(=O)CN2CCN(C(=O)c3ccco3)CC2)cc1S(=O)(=O)N1CCCC1 | 3.47 | 1.46 µM [falling, partial curve] | 
37 | NNC(=O)[C@@H]1C[C@@H]1c1ccccc1 | 8.8 | 1.84 µM [falling, partial curve, poor fit] | 
38 | COc1ccc(NC(=O)Nc2c[nH]c(=O)[nH]c2=O)cc1OC | -15.3 |  | 
39 | CCN(CC(=O)Nc1ccc(OC)cc1)C(=O)c1ccc2c(c1)NC(=O)CS2 | 7.5 |  | 

Remaining list, next part

Row | SMILES | cell number change [%] | AC50 [1] | AC50 [2]
41 | CSCCC(NC(=O)c1ccc([N+](=O)[O-])cc1Cl)C(=O)OCC(=O)NCCCc1ccccc1 (stereo not drawn) | 13.8 | 29.1 µM [rising, single point] | 
42 | Cc1ccc(C)c(N(C(=O)c2snc(C(N)=O)c2N)C(C(=O)NCC2CCCO2)c2cccs2)c1 (stereo not drawn) | 0.82 | 29.1 µM [rising, partial curve] | 
43 | CS(=O)(=O)N(Cc1ccccc1)c1ccc(C(=O)Nc2ccccc2C(=O)O)cc1 | 0.73 | 0.0058 µM [falling, full curve, poor fit] | 2.31 µM [rising, partial curve]
44 | COc1ccc(CN(C(=O)c2nsc(Cl)c2Cl)C(C(=O)NC2CCCC2)c2ccc(OC)cc2)cc1 (stereo not drawn) | -32.1 | 2.06 µM [falling, partial curve, poor fit] | 16.4 µM [falling, partial curve]
45 | Cn1nnc(NC(=O)COc2ccc(C3CCCCC3)cc2)n1 | -32.9 | 0.13 µM [falling, full curve, poor fit] | 0.058 µM [falling, full curve, poor fit]
46 | COc1cc(C(=O)OCCNC(=O)c2ccccc2)cc(OC)c1OC | -27.8 | 18.4 µM [falling, partial curve] | 
47 | CN(C)C(=O)CN(c1ccc(F)c(Cl)c1)S(C)(=O)=O | 67.6 |  | 
48 | O=C(CCCCCNC(=O)c1ccccc1)N=Nc1c(O)[nH]c2c(Br)cc(Br)cc12 |  | 13 µM [rising, partial curve, poor fit] | 
49 | Cc1ccccc1CN(c1ccc(C(=O)NCc2ccccn2)cc1)S(C)(=O)=O | -0.637 | 6.51 µM [rising, single point] | 6.51 µM [rising, single point]
50 | O=C(CSc1nc(O)cc(=O)n1-c1ccc(Cl)c(Cl)c1)Nc1ccc(Cl)cc1Cl | -2.64 |  | 
51 | O=C(Nc1ccc(Cl)cc1)OCCn1nnnc1C(c1ccccc1)N1CCOCC1 (stereo not drawn) | 119 |  | 29.1 µM [rising, single point]
52 | O=C(O)COCC(=O)Nc1ccc2c(c1)CCC2 | 11.2 | 0.651 µM [falling, full curve] | 
53 | CC(=O)Nc1cccc(NC(=O)COC(=O)CO/N=C(\C)c2ccc3c(c2)OCO3)c1 | 37.3 |  | 
54 | CC(=O)c1ccc(NC(=O)c2ccc(COc3ccccc3[N+](=O)[O-])o2)cc1 | -47.3 | 29.1 µM [falling, single point] | 29.1 µM [falling, single point]
55 | CCCCN1C(=O)C(CC(=O)NCC)SC1=Nc1ccccc1 (stereo not drawn) | 6.52 | 2.06 µM [rising, partial curve, poor fit] | 
56 | CN(C)CCN1C(=O)C(=O)/C(=C(/O)c2ccc(F)cc2)C1c1ccccc1 (stereo not drawn) | -37.3 | 2.06 µM [falling, partial curve] | 0.00461 µM [falling, full curve, poor fit]
57 | CCC(=O)N/C(=N/c1nc(C)cc(C)n1)Nc1cccc(OC)c1 | 47.9 | 3.66 µM [rising, partial curve] | 1.84 µM [rising, full curve]
58 | COc1ccccc1NS(=O)(=O)c1ccc(C(=O)N2CCCC(C(F)(F)F)C2)cc1 (stereo not drawn) | -16.8 | 3.26 µM [rising, single point] | 6.51 µM [rising, single point]
